Laboratory results taken from patent publication EP4800033A1, “HUMANIZED ANTI-CKAP4 ANTIBODY OR ANTIGEN-BINDING FRAGMENT THEREOF” (The University of Osaka, priority 2023, dated 2025).
Positions count from the first letter of the chain named. No constants are given. Whether binding was seen depends on the method and setting. Some binding calls cover weakened binding; strength is not graded here. Each block holds one binder with its values, some of them ahead of it.

Protein sequences, listed by entry. Tags and fused reporters are not part of them. Lines headed by an entry give the natural chain unless they say otherwise; changes in a name come on top.
UniProt Q07065: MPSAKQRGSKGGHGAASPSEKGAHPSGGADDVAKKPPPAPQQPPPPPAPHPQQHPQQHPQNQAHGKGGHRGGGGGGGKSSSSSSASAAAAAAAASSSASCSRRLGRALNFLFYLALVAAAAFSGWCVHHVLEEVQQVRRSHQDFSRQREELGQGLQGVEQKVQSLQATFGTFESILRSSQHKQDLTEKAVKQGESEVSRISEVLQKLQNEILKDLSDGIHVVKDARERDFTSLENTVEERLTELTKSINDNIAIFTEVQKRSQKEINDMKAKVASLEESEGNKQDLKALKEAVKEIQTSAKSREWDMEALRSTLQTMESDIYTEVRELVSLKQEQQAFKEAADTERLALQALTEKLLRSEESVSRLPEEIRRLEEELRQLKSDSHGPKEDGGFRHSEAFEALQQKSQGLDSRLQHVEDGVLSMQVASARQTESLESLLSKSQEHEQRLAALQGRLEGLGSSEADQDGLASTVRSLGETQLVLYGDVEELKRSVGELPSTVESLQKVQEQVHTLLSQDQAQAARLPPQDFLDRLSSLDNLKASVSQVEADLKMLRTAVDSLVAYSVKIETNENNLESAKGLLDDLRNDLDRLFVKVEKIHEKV

Tests used:
[1] = molecular target: CKAP4 in lysates of canine kidney cells MDCK I (canine); assay: blot of MDCK I cell lysate
[2] = molecular target: human endogenous CKAP4 (S2-CP8 cells) (human) (UniProt Q07065); assay: immunoprecipitation from S2-CP8 cell lysate, blot with rabbit anti-CKAP4 polyclonal antibody

- binding [1]: binds
B1: Humanized anti-CKAP4 antibody Hv1Lt1 (antibody, human IgG1, V domains shown)
VH: QVQLVQSGAEVKKPGASVKVSCKASGFTFTSYWMHWVRQAPGQGLEWIGNINPSNGGTNYNAKFKSRVTMTRDTSTSTVYMELSSLRSEDTAVYYCARWVSFSYRGAMDYWGQGTLVTVSS
VL: EIVLTQSPDFQSVTPKEKVTITCRASRAIRNNLHWYQQKPDQSPKLLIKYVSQSISGVPSRFSGSGSGTDFTLTINSLEAEDAATYYCQQSDSWPYTFGQGTKLEIK
notes: also called HvlLtl; Humanized antibody Hv1Lt1

- binding [1]: binds
B2: Humanized anti-CKAP4 antibody Hv2Lt1 (antibody, human IgG1, V domains shown)
VH: B1 VH with F27Y, I48M, N50I, N59S, N61A, A62Q, K65Q, S66G
VL: B1 VL
notes: also called Hv2Ltl; Humanized antibody Hv2Ltl

- binding [2]: binds
B3: Mouse anti-CKAP4 antibody 3F11-2B10 (antibody, V domains shown)
VH: VQLQQQPGTELVKPGASVKLSCKASGFTFTSYWMHWVKQRPGQGLEWIGNINPSNGGTNYNAKFKSKATLTVDKSSSTAYMQLSSLTSEDSAVYYCARWVSFSYRGAMDYWGQGTSVTVSS
VL: DIVLTQSPAILSVTPGDGVSLSCRASRAIRNNLHWFQQKSHESPRLLIKYVSQSISGIPSRFSGSGSGTDFTLSVDSVETEDFGVYFCQQSDSWPYTFGGGTKLEIK
notes: Mouse monoclonal antibody; also called Mouse antibody 3F11-2B10; original mouse anti-CKAP4 antibody
